# Results from PMC8596017, “Evolutionary mode for the functional preservation of fast-evolving Drosophila telomere capping proteins” (Open Biology, 2021).
# Chains of the proteins cited; added tags and fusions are not shown.
# UniProt Q8KM30: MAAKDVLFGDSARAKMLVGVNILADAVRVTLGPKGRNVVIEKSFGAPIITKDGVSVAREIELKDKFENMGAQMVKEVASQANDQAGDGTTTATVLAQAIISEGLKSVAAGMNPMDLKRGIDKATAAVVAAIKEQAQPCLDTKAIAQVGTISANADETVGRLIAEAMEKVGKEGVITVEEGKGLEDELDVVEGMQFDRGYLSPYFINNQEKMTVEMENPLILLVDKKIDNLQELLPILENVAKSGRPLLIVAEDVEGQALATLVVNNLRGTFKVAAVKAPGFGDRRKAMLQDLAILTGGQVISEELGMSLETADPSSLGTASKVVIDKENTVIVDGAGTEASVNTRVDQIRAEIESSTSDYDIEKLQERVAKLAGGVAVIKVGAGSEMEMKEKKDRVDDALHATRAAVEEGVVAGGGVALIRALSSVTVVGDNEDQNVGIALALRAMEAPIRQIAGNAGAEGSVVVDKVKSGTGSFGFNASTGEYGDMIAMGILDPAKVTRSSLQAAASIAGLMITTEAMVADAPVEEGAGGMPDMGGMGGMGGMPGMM
# These are yes or no findings as the source states them, for the method shown. For some assays here: In cells and extracts the contact can be indirect. Some binding calls cover weakened binding; strength is not graded here. Tags and fused reporters may be left off the sequences shown.
# T1: Verrocchio (Ver), wild type, Flag-tagged (D. melanogaster, UniProt Q9VTZ2 1-214)
# T1 construct: Verrocchio (Ver), Terminin subunit of D. melanogaster; also called wild-type Ver; source: Arctic express cells (DE3), co-expressed with Moi-HA from a bicistronic pET vector; cell lysate, heparin-sepharose fractions, anti-FLAG M2 eluate; not shown: Flag, N-terminal, kept
# T1 sequence (looked up): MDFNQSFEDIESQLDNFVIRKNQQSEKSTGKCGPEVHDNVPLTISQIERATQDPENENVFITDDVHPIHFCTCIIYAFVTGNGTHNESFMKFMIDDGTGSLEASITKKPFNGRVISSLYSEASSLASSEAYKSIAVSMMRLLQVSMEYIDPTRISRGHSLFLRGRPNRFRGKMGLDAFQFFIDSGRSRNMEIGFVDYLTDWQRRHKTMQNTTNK
# Columns and labels:
# [1] = target: T1, Verrocchio (Ver), wild type, Flag-tagged; assay: co-IP; Flag immune-affinity purification: heparin-sepharose fractions loaded on anti-FLAG M2 affinity matrix, washed with buffer I (25 mM Tris HCl pH 7.5, 100 mM NaCl, 1 mM CaCl2, 1 mM MgCl2) or PBS, eluted with 3× Flag peptide
# [2] = target: T1, Verrocchio (Ver), wild type, Flag-tagged; assay: co-elution on heparin-sepharose chromatography; cleared bacterial cell extracts of co-expressed Flag-Ver (or mutant) and Moi-HA loaded on a heparin-sepharose column; elution by a 0.1–1 M NaCl gradient in 20 mM Tris pH 7.5, 1 ml fractions; CCB stained PAGE
binding [1],binding [2],Molecule
binds,,Cpn60 chaperone (from UniProt Q8KM30 1-548)
,binds,"Modigliani (Moi), HA-tagged at the C-terminus (natural protein, D. melanogaster, UniProt B7Z0L8 1-178, looked up, DTL/Modigliani (Moi), Terminin subunit of D. melanogaster; also called DTL; source: Arctic express cells (DE3), co-expressed with Ver from a bicistronic pET vector; cell lysate, heparin-sepharose fractions, anti-FLAG M2 eluate; not shown: HA, C-terminal, kept) MSLVPEASTSRAPKYCYFFKTLLVEELELETSYHNLHYGQCALIGRLAFKANQYRLENVRVKCLPKKYSLGEGTVSLLILGLTHDKVVENRVSTGRYCIVRGEVVLHNVQHPKGAKLTAGGVYDKINSLSNDPLAQKQYLSALLATYRPAIDLWYIQVIDRAEDLLTRRLEMRSLIEK"
